The text below walks through data of patent US12378320B2, “Methods for treating pancreatitis” (Cold Spring Harbor Laboratory, priority 2018, dated 2025).

The subject of the data set is CA19-9 modified proteins. Description: CA19-9 IP/MS (iTRAQ) of organoid conditioned media after Dox treatment. The arrangement: species or system mouse. To be noted: for 17 8H 5B1 / 17 8H NS19 / 17 0H NS19: A217 (genetic negative) organoids conditioned media; for 17 8H 5B1 / 17 8H NS19: after 8 hours of treatment; for 17 8H 5B1 / 20 0H 5B1: CA19-9 IP with 5B1; for 17 8H 5B1 / 17 8H NS19 / 20 0H 5B1: relative to 17 0H NS19; for 17 8H NS19 / 17 0H NS19: CA19-9 IP with NS19-9; for 17 0H NS19 / 20 0H 5B1: before treatment (0H); for 17 0H NS19: relative abundance, reference channel; for 20 0H 5B1: A220 (C;R^LSL;F) organoids conditioned media.

B1: Q9CWJ9 (protein, UniProt Q9CWJ9 1-592, looked up)
chain: MAPSQLALFSVSDKTGLVEFARSLASLGLSLVASGGTAKAIRDAGLAVRDVSELTGFPEMLGGRVKTLHPAVHAGILARNIPEDAADMARLDFNLVRVVVCNLYPFVKTVASPDVTVEAAVEQIDIGGVTLLRAAAKNHARVTVVCEPEDYAGVAAEMHGSDSKDTSLETRRHLALKAFTHTAQYDEAISDYFRKQYSKGISQMPLRYGMNPHQTPAQLYTLKPKLPITVLNGAPGFINLCDALNAWQLVTELRGAVDIPAAASFKHVSPAGAAVGVPLSEDEARVCMVYDLYPTLTPLAVAYARARGADRMSSFGDFVALSDICDVPTAKIISREVSDGIVAPGYEEEALKILSKKKNGNYCVLQMDQSYKPDENEVRTLFGLRLSQKRNNGVVDKSLFSNIVTKNKDLPESALRDLIVATVAVKYTQSNSVCYAKDGQVIGIGAGQQSRIHCTRLAGDKANSWWLRHHPRVLSMKFKAGVKRAEISNAIDQYVTGTIGEGEDLVKWEALFEEVPELLTEAEKKEWVDKLSGVSVSSDAFFPFRDNVDRAKRSGVAYIVAPSGSTADKVVIEACDELGIVLAHTDLRLFHH
modifications: full-length
For the molecule B1, the “17 8H 5B1” value is listed as 1.223, the “17 8H NS19” value worked out at 0.716, the “17 0H NS19” value came to 1 and the “20 0H 5B1” value was found to be 1.099.

B2: Q8BGQ7 (protein, UniProt Q8BGQ7 1-968, looked up)
chain: MDATLTAREIRERFINFFRRNEHTYVHSSATIPLDDPTLLFANAGMNQFKPIFLNTIDPSHPMAKLSRAANTQKCIRAGGKHNDLDDVGKDVYHHTFFEMLGSWSFGDYFKELACKMALELLTQEFGIPVERLYVTYFGGDEAAGLEPDLECRQIWQNLGLDEARILPGNMKDNFWEMGDTGPCGPCSEIHYDRIGGRDAAHLVNQDDPNVLEIWNLVFIQYNRESDGVLKPLPKKSIDTGMGLERLVSVLQNKMSNYDTDLFMPYFEAIQKGTGARPYTGKVGAEDADGIDMAYRVLADHARTITVALADGGRPDNTGRGYVLRRILRRAVRYSHEKLNASRGFFATLVDVVVQSLGDAFPELKKDPEMVKDIINEEEVQFLKTLSRGRRILDRKIQSLGDCKTIPGDTAWLLYDTYGFPVDLTGLIAEEKGLVVDMNGFEEERRLAQLKSQGKGAGDEDLIMLDIYAIEELRAKGLEATDDSPKYNYQSDSSGSYVFECTVATVLALRREKMFVDEVVTGQECGVVLDKTCFYAEQGGQIYDEGYLVKVDDSSEDKTEFTVKNAQVRGGYVLHIGTIYGNLKVGDQVRLFIDEPRRRPVMSNHTATHILNFALRSVLGEADQKGSLVAPDRLRFDFTAKGAMSTQQIKKAEEIVNGMIEAAKPVYTQDCPLAAAKAIQGLRAVFDETYPDPVRVVSIGVPVSELLDDPCGPAGSLTSVEFCGGTHLRNSSHAGAFVIVTEEAIAKGIRRIVAVTGAEAQKALRKSETLKKSLSAMEAKVKAQTAPNKDVQREIADLGEALATAVIPQWQKDEQRETLKSLKKVMDDLDRASKADVQKRVLEKTKQLIDSNPNQPLVILEMESGASAKALNEALKLFKTHSPQTSAMLFTVDNEAGKITCLCQVPQNAANRGLKASEWVQQVSGLMDGKGGGKDMSAQATGKNVGCLQEALQLATSFAQLRLGDVKN
modifications: full-length
Regarding B2, the “17 8H 5B1” value worked out at 2.891, the “17 8H NS19” value is listed as 0.555 and the “20 0H 5B1” value was found to be 2.559.

B3: Q91VC3 (protein, UniProt Q91VC3 1-411, looked up)
chain: MAANATMATSGSARKRLLKEEDMTKVEFETSEEVDVTPTFDTMGLREDLLRGIYAYGFEKPSAIQQRAIKQIIKGRDVIAQSQSGTGKTATFSVSVLQCLDIQVRETQALILAPTRELAVQIQKGLLALGDYMNVQCHACIGGTNVGEDIRKLDYGQHVVAGTPGRVFDMIRRRSLRTRAIKMLVLDEADEMLNKGFKEQIYDVYRYLPPATQVVLISATLPHEILEMTNKFMTDPIRILVKRDELTLEGIKQFFVAVEREEWKFDTLCDLYDTLTITQAVIFCNTKRKVDWLTEKMREANFTVSSMHGDMPQKERESIMKEFRSGASRVLISTDVWARGLDVPQVSLIINYDLPNNRELYIHRIGRSGRYGRKGVAINFVKNDDIRILRDIEQYYSTQIDEMPMNVADLI
modifications: full-length
Take B3: the “17 8H 5B1” value was 1.984, the “17 8H NS19” value was 0.595, the “17 0H NS19” value amounted to 1 and the “20 0H 5B1” value was found to be 2.076.
